Measured values reported in article PMC8336351.
Results are given in words; binding and its absence hold for the method and conditions named. Binding seen in cells or lysates may run through a third protein. Some binding calls cover weakened binding; strength is not graded here.

Sequences of proteins named here, by UniProt entry; tags and fusion partners are left off.
UniProt Q8R4B8: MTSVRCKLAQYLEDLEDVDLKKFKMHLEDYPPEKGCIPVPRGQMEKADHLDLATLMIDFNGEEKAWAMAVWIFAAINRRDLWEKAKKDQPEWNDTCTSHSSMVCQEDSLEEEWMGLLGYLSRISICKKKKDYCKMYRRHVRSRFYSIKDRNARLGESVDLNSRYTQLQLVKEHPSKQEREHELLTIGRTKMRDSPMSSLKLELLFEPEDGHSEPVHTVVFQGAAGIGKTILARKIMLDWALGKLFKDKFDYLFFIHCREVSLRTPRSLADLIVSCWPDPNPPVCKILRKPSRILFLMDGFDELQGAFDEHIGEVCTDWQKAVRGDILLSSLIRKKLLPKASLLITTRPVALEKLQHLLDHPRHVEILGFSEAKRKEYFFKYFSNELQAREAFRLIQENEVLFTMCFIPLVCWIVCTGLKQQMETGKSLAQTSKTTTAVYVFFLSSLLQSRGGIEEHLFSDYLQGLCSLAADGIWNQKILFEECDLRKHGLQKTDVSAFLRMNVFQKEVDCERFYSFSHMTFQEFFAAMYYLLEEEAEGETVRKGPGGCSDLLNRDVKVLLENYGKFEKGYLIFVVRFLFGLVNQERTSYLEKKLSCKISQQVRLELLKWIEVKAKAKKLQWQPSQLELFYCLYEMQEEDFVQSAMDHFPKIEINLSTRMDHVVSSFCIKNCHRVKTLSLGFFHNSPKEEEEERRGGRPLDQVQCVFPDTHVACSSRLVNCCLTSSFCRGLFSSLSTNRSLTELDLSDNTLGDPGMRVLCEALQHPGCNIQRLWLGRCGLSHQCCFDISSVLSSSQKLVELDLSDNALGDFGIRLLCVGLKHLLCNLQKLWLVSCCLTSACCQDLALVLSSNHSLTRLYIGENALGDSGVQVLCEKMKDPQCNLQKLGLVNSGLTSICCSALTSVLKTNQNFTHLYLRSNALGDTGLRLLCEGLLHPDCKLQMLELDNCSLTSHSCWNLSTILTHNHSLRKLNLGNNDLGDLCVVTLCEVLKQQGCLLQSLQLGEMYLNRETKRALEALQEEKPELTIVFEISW

Molecular target: T1, thioredoxin-interacting protein (mouse (endogenous in C57BL/6 J mouse liver)) (UniProt Q8BG60)
T1 sequence: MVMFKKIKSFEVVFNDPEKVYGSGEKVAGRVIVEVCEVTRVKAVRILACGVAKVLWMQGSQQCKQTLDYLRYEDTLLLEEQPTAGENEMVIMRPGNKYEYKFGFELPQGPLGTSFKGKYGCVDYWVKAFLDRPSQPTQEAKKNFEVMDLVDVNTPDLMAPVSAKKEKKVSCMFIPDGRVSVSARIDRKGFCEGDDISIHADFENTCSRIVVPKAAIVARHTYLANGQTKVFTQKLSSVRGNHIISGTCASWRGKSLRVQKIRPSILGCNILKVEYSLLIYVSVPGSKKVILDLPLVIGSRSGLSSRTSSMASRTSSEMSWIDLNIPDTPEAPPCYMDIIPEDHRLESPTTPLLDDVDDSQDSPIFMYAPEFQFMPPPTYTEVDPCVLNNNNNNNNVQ
Experiment: co-IP; liver tissue lysates of C57BL/6 J mice (normal diet, high fat & sucrose diet model, and groups treated with BER + CUR, LBC, LSDBC or DEAE-DEX@LSDBC); supernatant with antibody (anti-TXNIP or anti-p300, 1 μg/100 μL) at 4 °C overnight, protein A/G-agarose beads 4 h at 4 °C, washed 4 times with lysis buffer; western blot

- binding: binds
Substance: nucleotide-binding oligomerization domain, leucine-rich repeat or pyrin domain-containing 3 (from UniProt Q8R4B8 1-1033)
